Most values lie at the floor of the assay. Slopes are relative: functional sequences can read slightly below zero.
What follows are substances tested on Saccharomyces cerevisiae PS128 hsf1 delta, HSF1(1-493) fusion (assay: growth estimate (transactivation domain function in HSF1 fusion, heat-shock survival) (a.u. (slope of normalised read count over time)); higher = stronger growth at 37°C, i.e. more transactivation activity). Conditions: library: random library.

Row | Substance | growth estimate
1 | YYGIIARSVTPVNQNAHTGQ | < -0.25
2 | YYRV | -0.205
3 | YYSVRIDRRAKRRISAGRYE | < -0.25
4 | YYTDFYG | < -0.25
5 | YYVDTRSSRRTVDQWDLVYD | -0.231
6 | YYWRVKRVALLRSPSRGSCA | < -0.25

From the supplement of paper PMC5949888
